Values from PubChem BioAssay AID1259254 (NCATS, 2017)

Assay: 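Gene knock-downs that lead to re-replication, shown by excess G2 DNA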 (primary screen)
Cell system: human HCT116 colorectal cancer cells
Reagent: single siRNA against human genes
Time to read-out: 3 days
Measured: 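Imaged Hoechst DNA stain sorts each cell into a cycle phase by DNA amount; per plate, G2 fraction set to 0% for non-targeting and 100% for GMNN siRNA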
Scale: G2 robust z-score and G2 cells, % of GMNN control: higher = more G2 cells, more excess DNA replication
Hit rule: 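Active siRNAs have a G2 robust z of 5 or more median absolute deviations over the median, which in these data means about 38% or higher of GMNN control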
Shown is one part, drawn at random, of about 59,000 reagents. Over the whole deposit, about 1,550 (2.6%) were called active. 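G2 share is only a proxy for re-replication; each gene was hit by three separate siRNAs, and active genes were retested.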 Unmarked entries are inactive. Reagents against one gene are numbered here. Not all columns of the deposit are shown. Not stated in the record: the amount of reagent.

Silencing of PHOX2A #1 resulted in: G2 robust z-score 0.144; G2 cells, % of GMNN control 3.98. Silencing of PHOX2A #2 came out at: G2 robust z-score 1.81; G2 cells, % of GMNN control 15.7. Against PHOX2A #3, the entry reads G2 robust z-score -0.42; G2 cells, % of GMNN control 0.0116. Knock-down of FCGR3A #1 came out at: G2 robust z-score -0.696; G2 cells, % of GMNN control -1.93. FCGR3A #2 showed G2 robust z-score -1.17; G2 cells, % of GMNN control -5.24. FCGR3A #3 scored G2 robust z-score 1.64; G2 cells, % of GMNN control 14.5.

Silencing of MRPL23 #1 gave: G2 robust z-score 1.11; G2 cells, % of GMNN control 10.7. Silencing of MRPL23 #2 came out at: G2 robust z-score -0.616; G2 cells, % of GMNN control -1.37. For MRPL23 #3, the entry reads G2 robust z-score -0.434; G2 cells, % of GMNN control -0.0896. EIF2A #1 scored G2 robust z-score -0.0626; G2 cells, % of GMNN control 2.53. Silencing of EIF2A #2 gave: G2 robust z-score 0.446; G2 cells, % of GMNN control 6.1. EIF2A #3 showed G2 robust z-score -1.22; G2 cells, % of GMNN control -5.64.

Sorted by “G2 cells, % of GMNN control” (ascending): 2 of the entries above
FCGR3A #2 | G2 robust z-score: -1.17; G2 cells, % of GMNN control: -5.24
FCGR3A #3 | G2 robust z-score: 1.64; G2 cells, % of GMNN control: 14.5
